These are yes or no findings as the source states them, for the method shown. Binding seen in cells or lysates may run through a third protein. These calls come from enrichment with a bait or labelling near it, and not all partners need be listed.
Biological target: MYC-BioTAP (HEK293-TREx) (human) (UniProt P01106)
Test: affinity purification with mass spectrometry

Sequences of proteins named here, by UniProt entry; tags and fusion partners are left off. A change or cut given only in a name is not applied to a line headed by its entry.
UniProt P01106: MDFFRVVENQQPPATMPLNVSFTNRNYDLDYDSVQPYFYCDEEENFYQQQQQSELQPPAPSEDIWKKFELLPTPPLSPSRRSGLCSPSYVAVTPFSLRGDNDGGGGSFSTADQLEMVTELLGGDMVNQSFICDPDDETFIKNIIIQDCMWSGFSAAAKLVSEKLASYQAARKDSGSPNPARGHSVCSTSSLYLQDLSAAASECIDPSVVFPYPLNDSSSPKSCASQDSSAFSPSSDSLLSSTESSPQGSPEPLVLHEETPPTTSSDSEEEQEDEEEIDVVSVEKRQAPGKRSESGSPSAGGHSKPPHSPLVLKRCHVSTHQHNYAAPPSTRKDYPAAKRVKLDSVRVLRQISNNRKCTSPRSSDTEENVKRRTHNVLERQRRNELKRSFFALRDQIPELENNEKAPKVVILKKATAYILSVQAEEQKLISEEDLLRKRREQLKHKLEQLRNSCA
UniProt O15265: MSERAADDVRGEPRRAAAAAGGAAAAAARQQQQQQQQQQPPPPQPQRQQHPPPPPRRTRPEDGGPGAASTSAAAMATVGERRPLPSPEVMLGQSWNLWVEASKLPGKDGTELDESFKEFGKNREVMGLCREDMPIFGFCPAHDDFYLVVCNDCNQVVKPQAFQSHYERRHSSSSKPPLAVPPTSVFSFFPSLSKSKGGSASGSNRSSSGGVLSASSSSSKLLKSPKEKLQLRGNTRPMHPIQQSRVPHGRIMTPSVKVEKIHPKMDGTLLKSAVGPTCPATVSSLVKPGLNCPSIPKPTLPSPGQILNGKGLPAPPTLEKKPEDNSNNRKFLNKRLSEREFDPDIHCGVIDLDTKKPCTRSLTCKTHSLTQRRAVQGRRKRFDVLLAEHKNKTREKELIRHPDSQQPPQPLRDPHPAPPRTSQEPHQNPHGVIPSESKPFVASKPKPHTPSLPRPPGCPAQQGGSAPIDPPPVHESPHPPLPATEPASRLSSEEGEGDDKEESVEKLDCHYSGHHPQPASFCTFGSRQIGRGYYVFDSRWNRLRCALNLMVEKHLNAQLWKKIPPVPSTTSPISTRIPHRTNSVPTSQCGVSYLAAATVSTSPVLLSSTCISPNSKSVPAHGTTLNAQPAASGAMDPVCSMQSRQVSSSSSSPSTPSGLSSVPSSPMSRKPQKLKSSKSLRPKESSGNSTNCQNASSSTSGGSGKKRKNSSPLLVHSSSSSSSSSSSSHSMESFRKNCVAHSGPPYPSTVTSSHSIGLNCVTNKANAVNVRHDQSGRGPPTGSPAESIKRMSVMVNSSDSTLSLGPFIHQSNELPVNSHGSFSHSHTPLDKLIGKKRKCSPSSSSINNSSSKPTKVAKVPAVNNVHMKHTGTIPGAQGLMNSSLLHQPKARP
UniProt Q92830: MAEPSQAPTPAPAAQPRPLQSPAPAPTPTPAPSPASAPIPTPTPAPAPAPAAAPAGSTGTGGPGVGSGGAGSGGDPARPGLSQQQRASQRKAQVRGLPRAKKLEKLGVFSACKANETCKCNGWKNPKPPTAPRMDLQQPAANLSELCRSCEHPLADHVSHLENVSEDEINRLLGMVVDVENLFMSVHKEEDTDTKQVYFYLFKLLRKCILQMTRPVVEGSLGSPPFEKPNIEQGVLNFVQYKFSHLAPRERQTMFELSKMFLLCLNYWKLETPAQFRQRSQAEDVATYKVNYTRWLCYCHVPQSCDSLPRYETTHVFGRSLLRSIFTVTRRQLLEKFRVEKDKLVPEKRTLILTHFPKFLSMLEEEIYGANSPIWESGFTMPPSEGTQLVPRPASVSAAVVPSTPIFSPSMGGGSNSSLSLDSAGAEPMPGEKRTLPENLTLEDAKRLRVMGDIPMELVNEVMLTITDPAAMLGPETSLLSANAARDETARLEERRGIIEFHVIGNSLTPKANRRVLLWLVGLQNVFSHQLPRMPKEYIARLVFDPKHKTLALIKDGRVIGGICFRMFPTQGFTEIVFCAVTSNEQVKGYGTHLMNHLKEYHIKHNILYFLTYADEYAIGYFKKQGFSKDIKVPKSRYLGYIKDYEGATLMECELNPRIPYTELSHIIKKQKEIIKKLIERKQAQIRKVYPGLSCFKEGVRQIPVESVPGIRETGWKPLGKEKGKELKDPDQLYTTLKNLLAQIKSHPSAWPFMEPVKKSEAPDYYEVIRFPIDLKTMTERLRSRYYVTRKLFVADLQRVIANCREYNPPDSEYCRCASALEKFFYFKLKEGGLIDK

Substance | binding
ATXN7 (from UniProt O15265 1-892) | binds
KAT2A (from UniProt Q92830 1-837) (enzyme) | binds

From doi:10.1101/2022.04.22.489219
